# Results from US20110082119A1, “PROPHYLACTIC/AMELIORATING OR THERAPEUTIC AGENT FOR NON-ALCOHOLIC STEATOHEPATITIS” (priority 2008, published 2011).
# Tested on: SD rat fed with high-fat high-sucrose diet
# Test: Effectiveness in high fat diet-fed rat
# Type: in vivo
# Conditions: HF diet 4 weeks, oral once a day, compared to the control group, EPA-E 1000 mg/kg, atorvastatin calcium hydrate 10 mg/kg
# Description: 4 week old male SD rat is allowed to freely take normal diet (F-1, Funabashi Farm) or high-fat high-sucrose diet (TD88137, Harlan Teklad, hereinafter referred to as “HF diet”) for 4 weeks under 12 hour light-dark cycles at 23° C. […] The administration is conducted orally once a day. The normal group and the control group are orally administered with 5% aqueous solution of gum arabic once a day. After 4 weeks, blood is collected for determining neutrophil count and conduct biochemical tests of the plasma. […] The neutrophil count, TNFα, IL-6, and high sensitivity CPR as well as ferritin, thioredoxin, and type IV collagen also increase.
compound,measurement,value
"CC(C)c1c(C(=O)Nc2ccccc2)c(-c2ccccc2)c(-c2ccc(F)cc2)n1CC[C@@H](O)C[C@@H](O)CC(=O)O [atorvastatin, atorvastatin calcium hydrate]",plasma ALT,suppressed increase
same,plasma AST,suppressed increase
